Taken from: PubChem BioAssay AID504793 (Drosophila RNAi Screening Center, 2011)
The screen tested about 23,000 reagents; below is a random part of those with a known target gene and a result. Of all reagents, 62 (0.27%) got an active call. 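Calls come from follow-up tests whose scores are not deposited, so confirmed genes may have low counts here; counts are not normalised per plate.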 Raw values are not corrected between plates. A plus sign joins genes that one reagent is predicted to hit.

Test: 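Genes required for cells to halt at G2/M after double-strand DNA breaks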 (primary screen)
System: Drosophila S2R+ cells
Knock-down reagent: long dsRNA against Drosophila genes, about 0.25 µg dsRNA per well
Timing: 4 days of dsRNA, then 4 hours of drug before read-out
Conditions: doxorubicin 0.5 µM for 4 hours to cause double-strand breaks, in cells also given a low, harmless dose of dsRNA against nbs to sensitise the assay
Read-out: 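Per-well count of mitotic cells stained for phospho-histone H3 after doxorubicin exposure, used as mitotic index; counts are raw and not normalised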
Scale: mitotic cells: higher = more cells in mitosis, weaker G2 arrest
Active means: 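Genes are called active only when high mitotic counts were reproduced with independent dsRNAs and mitosis was checked for delay without damage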
Meaning of the calls: active = confirmed in follow-up tests; inactive = not confirmed

Bcs1 [DRSC02789] → mitotic cells, replicate 1 = 8; activity call = inactive
Sxl + CG14425 (retired record) [DRSC18721] → mitotic cells, replicate 1 = 5; activity call = inactive
Sxl + CG14425 (retired record) [DRSC18722] → mitotic cells, replicate 1 = 17; activity call = inactive
Sxl + CG14425 (retired record) [DRSC21490] → mitotic cells, replicate 1 = 12; activity call = inactive
Sxl + CG14425 (retired record) [DRSC28896] → mitotic cells, replicate 1 = 4; activity call = inactive
CG14441 [DRSC24967] → mitotic cells, replicate 1 = 9; activity call = inactive
shtd [DRSC20166] → mitotic cells, replicate 1 = 184; activity call = inactive
shtd [DRSC27760] → mitotic cells, replicate 1 = 22; activity call = inactive
CtsK1 [DRSC08742] → mitotic cells, replicate 1 = 6; activity call = inactive
Pdp1 [DRSC08896] → mitotic cells, replicate 1 = 6; activity call = inactive
Pdp1 [DRSC08897] → mitotic cells, replicate 1 = 3; activity call = inactive
Pdp1 [DRSC11251] → mitotic cells, replicate 1 = 6; activity call = inactive
Pdp1 [DRSC22973] → mitotic cells, replicate 1 = 13; activity call = inactive
Fili [DRSC04132] → mitotic cells, replicate 1 = 12; activity call = inactive
Fili [DRSC04445] → mitotic cells, replicate 1 = 7; activity call = inactive
Alp8 [DRSC04353] → mitotic cells, replicate 1 = 6; activity call = inactive
Alp8 [DRSC27635] → mitotic cells, replicate 1 = 7; activity call = inactive
Sgs1 [DRSC00787] → mitotic cells, replicate 1 = 3; activity call = inactive
msn [DRSC07990] → mitotic cells, replicate 1 = 3; activity call = inactive
msn [DRSC08498] → mitotic cells, replicate 1 = 7; activity call = inactive
msn [DRSC25188] → mitotic cells, replicate 1 = 8; activity call = inactive
CG12170 [DRSC12199] → mitotic cells, replicate 1 = 7; mitotic cells, replicate 2 = 14; activity call = inactive
Recs1 [DRSC16545] → mitotic cells, replicate 1 = 2; activity call = inactive
Ser6 [DRSC20574] → mitotic cells, replicate 1 = 5; activity call = inactive
Ser6 [DRSC27628] → mitotic cells, replicate 1 = 5; activity call = inactive
CG14324 [DRSC14803] → mitotic cells, replicate 1 = 12; activity call = inactive
CG14324 [DRSC24292] → mitotic cells, replicate 1 = 5; activity call = inactive
Idh3a [DRSC19446] → mitotic cells, replicate 1 = 4; activity call = inactive
Idh3a [DRSC28303] → mitotic cells, replicate 1 = 11; activity call = inactive
Las [DRSC11772] → mitotic cells, replicate 1 = 11; activity call = inactive
Las [DRSC26539] → mitotic cells, replicate 1 = 12; activity call = inactive
Wee1 [DRSC03635] → mitotic cells, replicate 1 = 7; activity call = inactive
Wee1 [DRSC23318] → mitotic cells, replicate 1 = 13; activity call = inactive
CG12519 [DRSC29810] → mitotic cells, replicate 1 = 5; activity call = inactive
CG33003 [DRSC22419] → mitotic cells, replicate 1 = 7; activity call = inactive
CG33003 [DRSC26346] → mitotic cells, replicate 1 = 8; activity call = inactive
CG6006 [DRSC13137] → mitotic cells, replicate 1 = 8; activity call = inactive
CG6006 [DRSC15946] → mitotic cells, replicate 1 = 8; activity call = inactive
CG32191 [DRSC10522] → mitotic cells, replicate 1 = 5; activity call = inactive
LSm7 [DRSC02251] → mitotic cells, replicate 1 = 4; activity call = inactive
Act87E [DRSC22578] → mitotic cells, replicate 1 = 11; activity call = inactive
Act87E [DRSC23961] → mitotic cells, replicate 1 = 6; activity call = inactive
CG13679 [DRSC10037] → mitotic cells, replicate 1 = 10; activity call = inactive
CG13679 [DRSC22749] → mitotic cells, replicate 1 = 8; activity call = inactive
